# Results from the supplement of paper PMC10849652.
# Protein sequences, listed by entry. Tags and fused reporters are not part of them. Lines headed by an entry give the natural chain unless they say otherwise; changes in a name come on top.
# UniProt Q8NG11: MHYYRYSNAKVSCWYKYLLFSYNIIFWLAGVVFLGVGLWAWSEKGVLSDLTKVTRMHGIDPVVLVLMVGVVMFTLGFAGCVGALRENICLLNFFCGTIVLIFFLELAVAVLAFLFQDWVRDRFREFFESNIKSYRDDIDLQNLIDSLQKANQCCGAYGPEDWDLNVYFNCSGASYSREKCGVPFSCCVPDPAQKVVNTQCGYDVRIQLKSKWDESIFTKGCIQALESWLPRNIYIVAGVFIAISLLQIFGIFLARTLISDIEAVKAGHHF
# UniProt P62256: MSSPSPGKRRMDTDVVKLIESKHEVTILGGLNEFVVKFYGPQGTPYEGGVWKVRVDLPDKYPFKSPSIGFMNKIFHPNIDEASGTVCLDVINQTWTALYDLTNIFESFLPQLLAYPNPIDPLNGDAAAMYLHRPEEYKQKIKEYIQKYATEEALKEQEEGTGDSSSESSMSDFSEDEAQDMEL
# UniProt Q9BQE3, whole entry, looked up: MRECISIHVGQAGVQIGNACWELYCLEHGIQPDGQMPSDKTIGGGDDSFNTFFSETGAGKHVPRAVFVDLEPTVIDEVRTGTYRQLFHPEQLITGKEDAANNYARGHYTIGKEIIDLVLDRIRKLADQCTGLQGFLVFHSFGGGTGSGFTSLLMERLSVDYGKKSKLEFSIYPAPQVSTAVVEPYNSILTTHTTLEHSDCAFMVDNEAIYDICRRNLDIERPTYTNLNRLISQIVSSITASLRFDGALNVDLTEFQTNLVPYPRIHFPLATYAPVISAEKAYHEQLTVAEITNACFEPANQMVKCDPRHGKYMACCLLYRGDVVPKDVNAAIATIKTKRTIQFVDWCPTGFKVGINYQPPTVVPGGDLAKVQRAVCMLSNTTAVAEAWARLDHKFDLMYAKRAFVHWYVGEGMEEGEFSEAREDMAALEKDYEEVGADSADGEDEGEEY
# UniProt P63279, whole entry, looked up: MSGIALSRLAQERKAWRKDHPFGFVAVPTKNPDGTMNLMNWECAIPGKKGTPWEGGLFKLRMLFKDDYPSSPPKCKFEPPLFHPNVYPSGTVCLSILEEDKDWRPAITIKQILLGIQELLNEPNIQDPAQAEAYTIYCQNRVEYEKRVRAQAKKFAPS
# UniProt Q9BTX7: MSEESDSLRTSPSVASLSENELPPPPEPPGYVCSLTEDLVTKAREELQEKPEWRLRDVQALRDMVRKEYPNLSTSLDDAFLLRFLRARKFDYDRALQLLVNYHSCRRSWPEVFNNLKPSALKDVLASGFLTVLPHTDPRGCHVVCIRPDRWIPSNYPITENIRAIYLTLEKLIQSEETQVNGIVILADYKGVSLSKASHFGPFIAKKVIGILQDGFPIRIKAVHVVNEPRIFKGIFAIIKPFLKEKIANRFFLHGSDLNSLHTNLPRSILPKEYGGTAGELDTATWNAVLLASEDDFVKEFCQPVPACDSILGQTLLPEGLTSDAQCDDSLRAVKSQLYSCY
# UniProt Q3KQV9: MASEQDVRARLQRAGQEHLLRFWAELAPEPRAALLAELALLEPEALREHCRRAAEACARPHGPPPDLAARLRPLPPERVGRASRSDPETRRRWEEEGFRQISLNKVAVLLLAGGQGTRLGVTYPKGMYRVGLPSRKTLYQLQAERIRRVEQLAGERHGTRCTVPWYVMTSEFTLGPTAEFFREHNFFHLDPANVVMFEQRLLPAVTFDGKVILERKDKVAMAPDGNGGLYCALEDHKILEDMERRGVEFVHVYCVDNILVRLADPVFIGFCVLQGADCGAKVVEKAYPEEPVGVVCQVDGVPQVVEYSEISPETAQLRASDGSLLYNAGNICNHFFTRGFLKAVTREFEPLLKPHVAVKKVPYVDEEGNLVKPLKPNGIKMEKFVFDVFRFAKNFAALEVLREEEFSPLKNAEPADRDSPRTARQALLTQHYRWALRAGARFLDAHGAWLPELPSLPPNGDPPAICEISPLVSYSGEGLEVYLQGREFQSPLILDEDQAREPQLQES
# UniProt P68363, whole entry, looked up: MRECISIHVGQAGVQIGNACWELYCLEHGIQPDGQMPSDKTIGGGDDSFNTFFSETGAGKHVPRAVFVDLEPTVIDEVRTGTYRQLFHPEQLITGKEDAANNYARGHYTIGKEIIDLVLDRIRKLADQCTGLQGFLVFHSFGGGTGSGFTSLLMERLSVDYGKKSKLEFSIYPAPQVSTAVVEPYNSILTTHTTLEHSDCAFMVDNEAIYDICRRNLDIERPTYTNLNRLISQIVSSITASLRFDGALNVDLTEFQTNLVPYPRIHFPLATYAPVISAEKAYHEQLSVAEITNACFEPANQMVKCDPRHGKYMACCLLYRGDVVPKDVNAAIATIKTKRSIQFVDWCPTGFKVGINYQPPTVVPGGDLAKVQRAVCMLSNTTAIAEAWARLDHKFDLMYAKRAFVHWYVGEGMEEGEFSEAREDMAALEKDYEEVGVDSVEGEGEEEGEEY
# UniProt P62253: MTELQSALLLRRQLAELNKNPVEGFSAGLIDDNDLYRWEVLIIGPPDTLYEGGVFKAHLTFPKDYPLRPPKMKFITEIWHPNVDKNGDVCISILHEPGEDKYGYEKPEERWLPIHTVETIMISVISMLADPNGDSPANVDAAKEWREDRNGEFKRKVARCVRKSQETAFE
# UniProt Q13509, whole entry, looked up: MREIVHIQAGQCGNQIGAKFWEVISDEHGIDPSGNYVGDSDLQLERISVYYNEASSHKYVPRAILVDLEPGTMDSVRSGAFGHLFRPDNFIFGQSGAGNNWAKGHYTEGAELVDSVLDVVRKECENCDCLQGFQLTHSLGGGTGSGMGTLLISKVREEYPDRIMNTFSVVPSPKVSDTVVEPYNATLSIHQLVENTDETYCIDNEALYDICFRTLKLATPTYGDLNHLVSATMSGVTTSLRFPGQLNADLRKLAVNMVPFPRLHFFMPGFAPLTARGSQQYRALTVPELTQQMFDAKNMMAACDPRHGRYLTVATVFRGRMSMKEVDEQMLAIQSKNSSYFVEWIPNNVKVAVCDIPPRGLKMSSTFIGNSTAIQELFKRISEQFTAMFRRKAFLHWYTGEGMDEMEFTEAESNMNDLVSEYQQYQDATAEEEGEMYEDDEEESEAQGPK
# UniProt Q6IBS0: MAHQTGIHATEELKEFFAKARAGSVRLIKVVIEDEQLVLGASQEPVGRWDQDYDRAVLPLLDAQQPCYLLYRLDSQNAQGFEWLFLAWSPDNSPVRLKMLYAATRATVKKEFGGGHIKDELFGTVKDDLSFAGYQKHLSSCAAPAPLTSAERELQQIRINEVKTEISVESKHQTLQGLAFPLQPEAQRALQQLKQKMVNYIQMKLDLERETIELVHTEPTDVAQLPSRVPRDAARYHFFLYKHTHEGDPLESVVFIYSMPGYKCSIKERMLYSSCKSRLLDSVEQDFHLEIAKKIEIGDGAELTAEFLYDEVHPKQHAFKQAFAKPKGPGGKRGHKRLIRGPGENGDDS
# UniProt Q9NUQ3: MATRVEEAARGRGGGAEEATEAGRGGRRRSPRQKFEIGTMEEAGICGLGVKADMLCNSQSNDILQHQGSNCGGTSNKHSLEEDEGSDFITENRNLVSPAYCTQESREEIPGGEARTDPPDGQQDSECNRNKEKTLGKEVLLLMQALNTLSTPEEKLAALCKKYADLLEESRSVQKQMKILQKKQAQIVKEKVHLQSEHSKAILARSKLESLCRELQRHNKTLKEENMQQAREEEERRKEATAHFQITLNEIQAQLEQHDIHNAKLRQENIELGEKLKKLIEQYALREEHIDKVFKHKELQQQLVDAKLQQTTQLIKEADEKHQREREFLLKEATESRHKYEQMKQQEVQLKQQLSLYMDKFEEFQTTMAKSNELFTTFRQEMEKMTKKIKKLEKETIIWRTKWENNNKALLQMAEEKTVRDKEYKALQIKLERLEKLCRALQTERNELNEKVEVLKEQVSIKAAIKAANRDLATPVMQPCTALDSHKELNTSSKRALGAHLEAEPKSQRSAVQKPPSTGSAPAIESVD
# UniProt Q5BVD1: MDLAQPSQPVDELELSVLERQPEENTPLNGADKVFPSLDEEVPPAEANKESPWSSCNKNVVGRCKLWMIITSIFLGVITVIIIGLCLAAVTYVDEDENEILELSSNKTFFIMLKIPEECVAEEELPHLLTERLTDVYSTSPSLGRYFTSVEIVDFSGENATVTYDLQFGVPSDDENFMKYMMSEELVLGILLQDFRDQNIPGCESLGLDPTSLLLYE
# UniProt Q969E8: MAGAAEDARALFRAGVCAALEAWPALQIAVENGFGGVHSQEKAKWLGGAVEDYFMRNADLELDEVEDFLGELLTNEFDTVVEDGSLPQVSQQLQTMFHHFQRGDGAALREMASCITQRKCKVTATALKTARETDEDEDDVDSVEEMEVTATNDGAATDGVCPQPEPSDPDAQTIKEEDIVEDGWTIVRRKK
# UniProt Q14157: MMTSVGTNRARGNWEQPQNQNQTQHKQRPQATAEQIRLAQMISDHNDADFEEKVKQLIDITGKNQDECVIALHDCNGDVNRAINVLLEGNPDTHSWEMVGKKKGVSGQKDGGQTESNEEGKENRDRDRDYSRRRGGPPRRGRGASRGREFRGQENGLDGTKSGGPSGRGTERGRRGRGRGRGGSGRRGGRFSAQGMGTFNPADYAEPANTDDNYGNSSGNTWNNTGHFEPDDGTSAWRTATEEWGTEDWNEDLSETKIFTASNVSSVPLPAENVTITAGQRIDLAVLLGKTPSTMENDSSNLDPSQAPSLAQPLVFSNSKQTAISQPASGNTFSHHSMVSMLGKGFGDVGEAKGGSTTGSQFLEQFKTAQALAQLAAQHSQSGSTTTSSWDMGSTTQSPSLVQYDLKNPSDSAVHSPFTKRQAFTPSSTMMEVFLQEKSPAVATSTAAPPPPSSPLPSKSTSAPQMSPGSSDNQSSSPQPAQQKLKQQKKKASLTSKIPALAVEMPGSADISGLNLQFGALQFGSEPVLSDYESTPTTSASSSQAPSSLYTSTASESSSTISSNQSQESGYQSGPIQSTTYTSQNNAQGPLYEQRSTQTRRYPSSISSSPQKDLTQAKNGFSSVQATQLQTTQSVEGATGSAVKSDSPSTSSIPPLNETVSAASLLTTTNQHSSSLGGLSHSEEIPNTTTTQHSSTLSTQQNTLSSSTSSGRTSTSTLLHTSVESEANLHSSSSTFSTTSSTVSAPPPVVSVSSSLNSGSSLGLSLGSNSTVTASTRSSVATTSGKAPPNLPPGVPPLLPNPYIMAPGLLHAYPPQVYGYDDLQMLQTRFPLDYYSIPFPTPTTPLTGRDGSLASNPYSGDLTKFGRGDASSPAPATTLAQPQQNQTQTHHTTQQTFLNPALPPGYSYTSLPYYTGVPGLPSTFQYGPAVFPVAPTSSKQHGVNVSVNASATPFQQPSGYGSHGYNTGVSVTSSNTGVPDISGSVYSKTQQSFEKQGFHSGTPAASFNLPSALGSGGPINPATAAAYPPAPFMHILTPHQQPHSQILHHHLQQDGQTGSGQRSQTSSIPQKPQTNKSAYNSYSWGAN
# UniProt Q99816: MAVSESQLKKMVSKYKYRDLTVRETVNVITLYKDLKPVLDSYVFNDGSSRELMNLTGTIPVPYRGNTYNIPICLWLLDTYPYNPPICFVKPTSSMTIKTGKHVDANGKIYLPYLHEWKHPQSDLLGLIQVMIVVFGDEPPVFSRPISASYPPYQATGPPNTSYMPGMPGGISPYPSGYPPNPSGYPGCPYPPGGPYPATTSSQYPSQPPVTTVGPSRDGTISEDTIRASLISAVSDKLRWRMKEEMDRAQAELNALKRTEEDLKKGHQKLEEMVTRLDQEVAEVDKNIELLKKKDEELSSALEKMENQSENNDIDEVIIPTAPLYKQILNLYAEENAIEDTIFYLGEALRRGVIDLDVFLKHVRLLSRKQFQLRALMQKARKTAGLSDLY
# UniProt Q9NV66: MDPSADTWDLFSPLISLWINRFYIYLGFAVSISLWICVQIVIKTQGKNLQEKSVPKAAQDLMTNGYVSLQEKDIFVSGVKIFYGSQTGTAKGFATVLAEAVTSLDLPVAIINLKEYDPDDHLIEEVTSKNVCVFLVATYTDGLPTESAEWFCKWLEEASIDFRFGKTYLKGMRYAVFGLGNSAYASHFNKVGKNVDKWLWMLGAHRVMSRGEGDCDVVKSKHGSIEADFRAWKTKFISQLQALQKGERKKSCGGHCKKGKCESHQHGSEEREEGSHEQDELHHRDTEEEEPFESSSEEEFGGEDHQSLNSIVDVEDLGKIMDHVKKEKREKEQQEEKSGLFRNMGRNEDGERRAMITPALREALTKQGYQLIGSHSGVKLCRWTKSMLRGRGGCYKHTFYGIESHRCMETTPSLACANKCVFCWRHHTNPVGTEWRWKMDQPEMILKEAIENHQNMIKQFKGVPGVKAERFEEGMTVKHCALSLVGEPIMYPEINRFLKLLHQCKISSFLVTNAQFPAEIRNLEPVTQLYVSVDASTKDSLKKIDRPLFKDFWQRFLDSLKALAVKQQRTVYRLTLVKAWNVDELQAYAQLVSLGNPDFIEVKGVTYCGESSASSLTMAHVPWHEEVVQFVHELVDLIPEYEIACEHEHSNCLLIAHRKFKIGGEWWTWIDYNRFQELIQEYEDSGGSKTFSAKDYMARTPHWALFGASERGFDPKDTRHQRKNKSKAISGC
# The other results are listed elsewhere or left out.
# Compound: CC1=C(C(CC(=O)N1)C2=CC=C(C=C2)C(F)(F)F)C(=O)NC3=C(C=C4C(=C3)C=NN4)F
# Experiment: log2 fold change, soluble protein after heating vs DMSO (PISA); higher = thermal stabilisation; K562 cells, 10 uM, 30 min; active = over 0.2 and 3.5 SD of the protein, either way, in both replicates (recomputed)
# Procedure, shortened: (§1)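 Thermal stability values are relative to control samples and come from duplicates. They are expressed as log2 fold changes. For measurement, K562 cells (2×10^6 cells/mL) received 10 μM compound for 30 min, and aliquots were heated for 3 min over 48°C-58°C, pooled, and extracted at 4°C in PBS with 0.5% NP-40. Soluble protein, the supernatant after 21,000xg for 90 min, was quantified by TMTpro 16plex LC-MS/MS with equalised channel sums.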
row,Target,log2 fold change
1,TSPAN14 (UniProt Q8NG11),inactive: 0.012
2,UBE2H (UniProt P62256),inactive: -0.045
3,TUBA1C (UniProt Q9BQE3),inactive: 0.028
4,UBE2I (UniProt P63279),inactive: -0.021
5,TTPAL (UniProt Q9BTX7),inactive: -0.01
6,TTC27 (UniProt Q6P3X3),inactive: 0.008
7,UAP1L1 (UniProt Q3KQV9),inactive: -0.005
8,TUBA1B (UniProt P68363),inactive: -0.001
9,UBE2G1 (UniProt P62253),inactive: 0.008
10,TUBB3 (UniProt Q13509),inactive: 0.007
11,TWF2 (UniProt Q6IBS0),inactive: -0.093
12,TXLNG (UniProt Q9NUQ3),inactive: -0.021
13,TTMP isoform 3 (UniProt Q5BVD1),inactive: -0.111
14,TTN isoform 12 (UniProt Q8WZ42),inactive: 0.067
15,TSR2 (UniProt Q969E8),inactive: 0.014
16,TUFM (UniProt P49411),inactive: -0.021

# Compound: CC1=C(C2=C(C=C1)C(=O)C3=CC=CC=C3N2CCCN)C
# Experiment: as above
# Procedure, shortened: as §1
row,Target,log2 fold change
1,TSPAN14 (UniProt Q8NG11),inactive: 0.049
2,UBE2J1 (UniProt Q9Y385),inactive: -0.047
3,UBE2H (UniProt P62256),inactive: -0.052
4,TUBA1C (UniProt Q9BQE3),inactive: 0.043
5,UBE2I (UniProt P63279),inactive: 0.051
6,UBAP2L isoform 1 (UniProt Q14157),inactive: 0.055
7,TTPAL (UniProt Q9BTX7),inactive: 0.072
8,TXNRD1 (UniProt Q16881),inactive: 0.077
9,TXNL1 (UniProt O43396),inactive: 0.038
10,TTC27 (UniProt Q6P3X3),inactive: -0.004
11,TTI2 (UniProt Q6NXR4),inactive: 0.033
12,UAP1L1 (UniProt Q3KQV9),inactive: 0.128
13,TXNIP (UniProt Q9H3M7),active: -0.42
14,UBAP1 isoform 4 (UniProt Q9NZ09),inactive: -0.112
15,UBAP2L isoform 5 (UniProt Q14157),inactive: 0.068
16,TSG101 (UniProt Q99816),inactive: -0.012

row,Target,log2 fold change
1,TUBA1B (UniProt P68363),inactive: 0.001
2,UBA52 (UniProt P62987),inactive: -0.532
3,UBE2G1 (UniProt P62253),inactive: -0.023
4,TYW1 (UniProt Q9NV66),inactive: 0.051
5,TXN2 (UniProt Q99757),inactive: 0.041
6,UBA1 (UniProt P22314),inactive: 0.336
7,UBA6,inactive: 0.106
8,TUBB3 (UniProt Q13509),inactive: 0.003
9,TSFM (UniProt P43897),inactive: 0.258
10,TWF2 (UniProt Q6IBS0),inactive: 0.002
11,TXLNG (UniProt Q9NUQ3),inactive: 0.051
12,TTMP isoform 3 (UniProt Q5BVD1),inactive: 0.196
13,TTN isoform 12 (UniProt Q8WZ42),inactive: 0.076
14,U2AF2 (UniProt P26368),inactive: 0.192
15,TSR2 (UniProt Q969E8),inactive: -0.109
16,TUFM (UniProt P49411),inactive: 0.147

# Compound: CC1=C(C=C(C=C1)NC(=O)C2=CC(=CC=C2)C(C)(C)C#N)NC3=CC4=C(C=C3)N=CN(C4=O)C
# Experiment: as above
# Procedure, shortened: as §1
row,Target,log2 fold change
1,TSPAN14 (UniProt Q8NG11),inactive: 0.038
2,UBE2J1 (UniProt Q9Y385),inactive: -0.133
3,UBE2H (UniProt P62256),inactive: -0.013
4,TUBA1C (UniProt Q9BQE3),inactive: 0.053
5,UBE2I (UniProt P63279),inactive: -0.014
6,UBAP2L isoform 1 (UniProt Q14157),inactive: -0.057
7,TTPAL (UniProt Q9BTX7),inactive: 0
8,TXNRD1 (UniProt Q16881),inactive: 0.032
9,TXNL1 (UniProt O43396),inactive: 0.02
10,TTC27 (UniProt Q6P3X3),inactive: 0.001
11,TTI2 (UniProt Q6NXR4),inactive: 0.021
12,UAP1L1 (UniProt Q3KQV9),inactive: -0.028
13,TXNIP (UniProt Q9H3M7),inactive: -0.04
14,UBAP1 isoform 4 (UniProt Q9NZ09),inactive: 0.082
15,UBAP2L isoform 5 (UniProt Q14157),inactive: -0.014
16,TSG101 (UniProt Q99816),inactive: 0

row,Target,log2 fold change
1,TUBA1B (UniProt P68363),inactive: 0.005
2,UBA52 (UniProt P62987),inactive: -0.046
3,UBE2G1 (UniProt P62253),inactive: -0.024
4,TYW1 (UniProt Q9NV66),inactive: 0.027
5,TXN2 (UniProt Q99757),inactive: -0.05
6,UBA1 (UniProt P22314),inactive: 0.039
7,UBA6,inactive: 0.086
8,TUBB3 (UniProt Q13509),inactive: -0.025
9,TSFM (UniProt P43897),inactive: 0.253
10,TWF2 (UniProt Q6IBS0),inactive: 0.093
11,TXLNG (UniProt Q9NUQ3),inactive: 0.117
12,TTMP isoform 3 (UniProt Q5BVD1),inactive: 0.334
13,TTN isoform 12 (UniProt Q8WZ42),inactive: -0.256
14,U2AF2 (UniProt P26368),inactive: -0.076
15,TSR2 (UniProt Q969E8),inactive: -0.162
16,TUFM (UniProt P49411),inactive: 0
